These are yes or no findings as the source states them, for the method shown. Some binding calls cover weakened binding; strength is not graded here.
Experiments:
[1] = molecular target: Human cMET (recombinant, soluble monomeric) (human) (UniProt P08581); experiment: ELISA, antigen coated at 1 µg/mL, antibody 10 to 0.002 µg/mL, anti-human Fab HRP
[2] = molecular target: Cynomolgus monkey cMET (recombinant, soluble monomeric) (cynomolgus monkey); experiment: as above
[3] = molecular target: Human cMET (recombinant, soluble monomeric) (human) (UniProt P08581); experiment: Octet biolayer interferometry, antigen capture format: His-tagged human cMET on NI-NTA sensors, then antibody (66 nM), then human EGFR (500 nM)
[4] = molecular target: Human cMET (recombinant, soluble monomeric) (human) (UniProt P08581); experiment: BLI, Octet384, His-tagged cMET on Ni-NTA sensors, antibody 66 nM
[5] = molecular target: Human cMET (recombinant, soluble monomeric) (human) (UniProt P08581); experiment: ELISA, FIG. 3A legend
[6] = molecular target: Cynomolgus monkey cMET (recombinant, soluble monomeric) (cynomolgus monkey); experiment: ELISA, FIG. 3A legend
[7] = molecular target: Cynomolgus monkey cMET (recombinant, soluble monomeric) (cynomolgus monkey); experiment: ELISA: antigen coated at 1 ug/mL, antibody dilution series, goat anti-human Fab-HRP, A450; panel Cynomolgus cMET
[8] = molecular target: Human cMET (recombinant, soluble monomeric) (human) (UniProt P08581); experiment: ELISA: antigen coated at 1 ug/mL, antibody dilution series, goat anti-human Fab-HRP, A450; panel Human cMET

Chains of the proteins cited; added tags and fusions are not shown. Lines headed by an entry give the natural chain unless they say otherwise; changes in a name come on top.
UniProt P08581: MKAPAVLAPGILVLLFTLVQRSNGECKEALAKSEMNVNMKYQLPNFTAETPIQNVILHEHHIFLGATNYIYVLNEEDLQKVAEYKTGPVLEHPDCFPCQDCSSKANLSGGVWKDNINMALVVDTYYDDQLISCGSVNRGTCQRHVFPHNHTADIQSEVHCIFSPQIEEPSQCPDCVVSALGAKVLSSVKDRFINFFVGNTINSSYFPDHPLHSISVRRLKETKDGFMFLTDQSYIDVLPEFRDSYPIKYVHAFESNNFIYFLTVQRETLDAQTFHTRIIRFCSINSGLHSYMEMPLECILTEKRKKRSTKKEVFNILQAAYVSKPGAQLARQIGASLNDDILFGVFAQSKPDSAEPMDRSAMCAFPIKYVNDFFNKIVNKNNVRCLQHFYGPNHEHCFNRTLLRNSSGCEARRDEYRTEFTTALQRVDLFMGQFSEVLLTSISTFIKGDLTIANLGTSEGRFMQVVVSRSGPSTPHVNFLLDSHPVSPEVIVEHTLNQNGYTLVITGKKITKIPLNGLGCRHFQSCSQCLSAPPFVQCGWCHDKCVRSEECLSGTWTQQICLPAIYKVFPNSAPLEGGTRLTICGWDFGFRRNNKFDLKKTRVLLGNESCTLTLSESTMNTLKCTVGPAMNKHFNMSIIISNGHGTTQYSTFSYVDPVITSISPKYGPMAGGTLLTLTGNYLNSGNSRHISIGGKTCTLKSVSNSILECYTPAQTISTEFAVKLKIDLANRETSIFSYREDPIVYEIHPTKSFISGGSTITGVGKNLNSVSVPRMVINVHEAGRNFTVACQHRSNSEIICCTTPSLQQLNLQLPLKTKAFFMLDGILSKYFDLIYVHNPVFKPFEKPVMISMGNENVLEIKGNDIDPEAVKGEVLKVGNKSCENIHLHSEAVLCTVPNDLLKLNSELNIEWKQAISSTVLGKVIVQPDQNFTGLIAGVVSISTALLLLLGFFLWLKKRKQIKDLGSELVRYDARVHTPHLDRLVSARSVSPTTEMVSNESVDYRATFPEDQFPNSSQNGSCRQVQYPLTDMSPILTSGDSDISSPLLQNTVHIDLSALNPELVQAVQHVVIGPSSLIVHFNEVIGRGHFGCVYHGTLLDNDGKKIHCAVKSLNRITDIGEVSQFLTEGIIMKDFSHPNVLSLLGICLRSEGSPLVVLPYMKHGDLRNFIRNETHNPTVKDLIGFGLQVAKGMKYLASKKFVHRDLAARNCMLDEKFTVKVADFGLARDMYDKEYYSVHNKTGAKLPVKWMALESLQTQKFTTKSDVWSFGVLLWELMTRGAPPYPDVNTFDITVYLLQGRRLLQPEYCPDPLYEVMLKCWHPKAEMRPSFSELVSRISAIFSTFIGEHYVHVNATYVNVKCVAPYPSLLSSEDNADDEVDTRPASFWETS

binding [1]: binds
binding [2]: binds
binding [3]: binds
binding [4]: binds
binding [5]: binds
binding [6]: binds
binding [7]: binds
binding [8]: binds
B1: B09-57 IgG (antibody, V domains shown)
VH: QVQLVQSGAEVKKPGASVKVSCKASGYTFTDYYIHWVRQATGQGLEWMGWMNPNSGNTGYAQKFQGRVTMTRDTSISTAYMELSSLRSEDTAVYYCARGQGYTHSWGQGTMVTVSS
VL: DIQMTQSPSTLSASVGDRVTITCRASEGIYHWLAWYQQKPGKAPKLLIYKASSLASGVPSRFSGSGSGTEFTLTISSLQPDDFATYYCQQYSNYPPTFGGGTKLEIK
notes: also called B09-GL; cMET IgG B09

From patent publication US20260166140A1, “Combinations Involving Epidermal Growth Factor Receptor Tyrosine Kinase Inhibitors For the Treatment of Cancer” (AstraZeneca AB, priority 2022, published 2026)
